This is one part of the list. The data scatter; read single values as rough.
What was measured:
[1] = compound: ClCC(=O)N[C@@H]1CCCc2ccccc12; assay: log2 mean competition ratio of IA-DTB cysteine labelling (DMSO/compound) (log2 ratio); higher = stronger cysteine engagement by compound; details: treatment time: 4 h, cell line lysate: HEK293T
Description: (§1)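 IA-DTB competitive cysteine chemoproteomics in HEK293T RIPA lysate. Lysates were treated with compound 29 or 30 at 50 or 200 µM for 4 h, then IA-DTB (500 µM, 1 h), trypsin-digested, NeutrAvidin-enriched and analysed by diaPASEF. Competition ratio = intensity DMSO / intensity compound (n=4 treated, n=64 DMSO); binding: mean log2 CR ≥ 1 and p ≤ 0.05 plus QC filters. Target is the cysteine site.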

Sequences of proteins named here, by UniProt entry; tags and fusion partners are left off. A change or cut given only in a name is not applied to a line headed by its entry.
UniProt Q96MX0: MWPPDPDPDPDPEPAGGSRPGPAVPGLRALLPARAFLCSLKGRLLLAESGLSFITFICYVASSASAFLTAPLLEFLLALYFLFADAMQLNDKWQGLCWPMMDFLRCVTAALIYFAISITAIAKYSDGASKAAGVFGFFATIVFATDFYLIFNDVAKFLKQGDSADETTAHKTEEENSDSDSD
UniProt O95639, whole entry, looked up: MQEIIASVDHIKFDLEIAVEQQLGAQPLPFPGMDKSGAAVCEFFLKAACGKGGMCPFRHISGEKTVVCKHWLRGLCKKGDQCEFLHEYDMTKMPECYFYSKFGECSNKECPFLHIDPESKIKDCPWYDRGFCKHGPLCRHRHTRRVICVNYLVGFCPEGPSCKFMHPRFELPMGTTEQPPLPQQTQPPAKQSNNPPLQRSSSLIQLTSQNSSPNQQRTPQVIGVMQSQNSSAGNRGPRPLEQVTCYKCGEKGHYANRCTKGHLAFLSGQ
UniProt O76071: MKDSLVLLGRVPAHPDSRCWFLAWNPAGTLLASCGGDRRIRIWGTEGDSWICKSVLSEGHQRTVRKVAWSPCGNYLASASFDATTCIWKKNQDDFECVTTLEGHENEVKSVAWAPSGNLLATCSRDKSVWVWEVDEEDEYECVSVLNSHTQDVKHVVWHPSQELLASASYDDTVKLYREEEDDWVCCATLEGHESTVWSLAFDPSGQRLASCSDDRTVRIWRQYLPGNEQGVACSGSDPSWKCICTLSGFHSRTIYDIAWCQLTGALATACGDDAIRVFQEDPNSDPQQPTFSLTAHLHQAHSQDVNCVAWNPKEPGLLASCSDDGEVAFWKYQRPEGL
UniProt Q9Y259: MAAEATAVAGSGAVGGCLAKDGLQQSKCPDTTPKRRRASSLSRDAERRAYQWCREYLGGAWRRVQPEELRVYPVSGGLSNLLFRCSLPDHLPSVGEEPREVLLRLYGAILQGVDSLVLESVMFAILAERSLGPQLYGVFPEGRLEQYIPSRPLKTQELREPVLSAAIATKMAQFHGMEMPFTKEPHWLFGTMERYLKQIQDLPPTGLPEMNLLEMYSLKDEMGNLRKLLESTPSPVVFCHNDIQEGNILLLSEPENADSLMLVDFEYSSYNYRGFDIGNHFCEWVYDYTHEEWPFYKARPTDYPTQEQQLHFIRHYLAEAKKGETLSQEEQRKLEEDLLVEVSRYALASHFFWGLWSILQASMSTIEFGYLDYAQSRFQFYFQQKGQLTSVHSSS
UniProt Q9UBF2: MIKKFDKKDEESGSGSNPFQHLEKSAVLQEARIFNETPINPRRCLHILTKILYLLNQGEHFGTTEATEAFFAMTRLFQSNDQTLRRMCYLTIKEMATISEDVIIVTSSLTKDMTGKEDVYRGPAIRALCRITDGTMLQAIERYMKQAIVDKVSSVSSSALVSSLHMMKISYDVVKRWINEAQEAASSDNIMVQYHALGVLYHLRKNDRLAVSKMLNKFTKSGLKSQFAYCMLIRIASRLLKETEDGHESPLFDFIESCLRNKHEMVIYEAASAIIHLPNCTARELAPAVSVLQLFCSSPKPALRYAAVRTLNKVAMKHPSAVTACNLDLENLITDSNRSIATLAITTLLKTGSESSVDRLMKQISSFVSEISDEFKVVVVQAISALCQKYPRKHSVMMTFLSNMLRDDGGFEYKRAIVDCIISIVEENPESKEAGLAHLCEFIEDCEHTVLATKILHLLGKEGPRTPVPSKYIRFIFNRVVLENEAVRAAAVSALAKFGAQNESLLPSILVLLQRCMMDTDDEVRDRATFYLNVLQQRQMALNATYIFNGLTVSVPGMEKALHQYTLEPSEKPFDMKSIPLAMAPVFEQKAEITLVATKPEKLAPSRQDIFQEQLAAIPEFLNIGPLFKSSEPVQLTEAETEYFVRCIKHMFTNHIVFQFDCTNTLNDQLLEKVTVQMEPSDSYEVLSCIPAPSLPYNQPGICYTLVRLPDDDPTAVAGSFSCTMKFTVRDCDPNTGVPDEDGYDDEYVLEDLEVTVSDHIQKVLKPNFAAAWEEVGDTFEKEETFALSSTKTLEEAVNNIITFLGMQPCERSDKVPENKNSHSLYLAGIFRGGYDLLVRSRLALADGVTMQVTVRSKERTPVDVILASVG
UniProt O96017: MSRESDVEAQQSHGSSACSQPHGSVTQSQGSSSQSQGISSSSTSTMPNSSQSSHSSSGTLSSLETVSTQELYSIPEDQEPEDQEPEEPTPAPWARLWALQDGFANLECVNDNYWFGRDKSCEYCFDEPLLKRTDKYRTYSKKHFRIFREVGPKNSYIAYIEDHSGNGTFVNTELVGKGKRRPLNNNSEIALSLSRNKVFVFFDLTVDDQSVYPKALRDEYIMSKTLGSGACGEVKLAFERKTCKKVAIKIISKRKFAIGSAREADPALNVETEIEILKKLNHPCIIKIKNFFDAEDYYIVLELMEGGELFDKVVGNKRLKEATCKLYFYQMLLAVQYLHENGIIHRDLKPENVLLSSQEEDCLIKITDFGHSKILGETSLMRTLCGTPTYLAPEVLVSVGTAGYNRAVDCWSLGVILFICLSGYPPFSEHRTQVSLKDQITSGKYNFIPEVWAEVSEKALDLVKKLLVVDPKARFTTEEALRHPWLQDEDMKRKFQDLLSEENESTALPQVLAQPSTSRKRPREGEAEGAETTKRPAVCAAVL
UniProt P26374: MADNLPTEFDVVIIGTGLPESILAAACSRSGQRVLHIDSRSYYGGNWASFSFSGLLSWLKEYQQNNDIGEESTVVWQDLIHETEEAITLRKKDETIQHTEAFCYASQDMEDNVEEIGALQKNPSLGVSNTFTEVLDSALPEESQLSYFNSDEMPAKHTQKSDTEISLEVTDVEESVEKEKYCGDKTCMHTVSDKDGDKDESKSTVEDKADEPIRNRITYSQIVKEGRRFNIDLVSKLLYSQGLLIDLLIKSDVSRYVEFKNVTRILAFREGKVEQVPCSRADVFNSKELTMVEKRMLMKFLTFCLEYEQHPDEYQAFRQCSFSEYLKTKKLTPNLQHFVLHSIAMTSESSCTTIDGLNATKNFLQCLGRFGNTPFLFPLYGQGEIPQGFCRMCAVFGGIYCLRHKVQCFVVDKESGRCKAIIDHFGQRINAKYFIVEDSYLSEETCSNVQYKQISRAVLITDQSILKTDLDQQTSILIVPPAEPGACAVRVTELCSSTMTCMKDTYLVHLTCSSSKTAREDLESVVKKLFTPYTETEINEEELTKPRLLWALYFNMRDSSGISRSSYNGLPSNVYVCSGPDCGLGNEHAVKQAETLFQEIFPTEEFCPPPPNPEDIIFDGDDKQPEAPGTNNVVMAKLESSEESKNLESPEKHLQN
UniProt Q9ULV4, whole entry, looked up: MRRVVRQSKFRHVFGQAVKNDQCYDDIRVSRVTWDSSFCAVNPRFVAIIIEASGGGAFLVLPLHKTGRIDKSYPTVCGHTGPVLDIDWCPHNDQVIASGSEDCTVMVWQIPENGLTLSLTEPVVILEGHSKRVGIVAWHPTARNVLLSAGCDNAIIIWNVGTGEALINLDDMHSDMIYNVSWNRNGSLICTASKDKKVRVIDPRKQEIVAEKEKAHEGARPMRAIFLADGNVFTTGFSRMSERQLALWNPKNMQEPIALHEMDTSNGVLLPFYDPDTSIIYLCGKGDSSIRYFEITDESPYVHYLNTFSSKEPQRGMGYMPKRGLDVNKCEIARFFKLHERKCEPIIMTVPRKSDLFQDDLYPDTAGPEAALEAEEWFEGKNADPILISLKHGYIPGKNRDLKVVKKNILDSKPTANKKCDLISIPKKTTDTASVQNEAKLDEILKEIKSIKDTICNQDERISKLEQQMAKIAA
UniProt Q9UBL6: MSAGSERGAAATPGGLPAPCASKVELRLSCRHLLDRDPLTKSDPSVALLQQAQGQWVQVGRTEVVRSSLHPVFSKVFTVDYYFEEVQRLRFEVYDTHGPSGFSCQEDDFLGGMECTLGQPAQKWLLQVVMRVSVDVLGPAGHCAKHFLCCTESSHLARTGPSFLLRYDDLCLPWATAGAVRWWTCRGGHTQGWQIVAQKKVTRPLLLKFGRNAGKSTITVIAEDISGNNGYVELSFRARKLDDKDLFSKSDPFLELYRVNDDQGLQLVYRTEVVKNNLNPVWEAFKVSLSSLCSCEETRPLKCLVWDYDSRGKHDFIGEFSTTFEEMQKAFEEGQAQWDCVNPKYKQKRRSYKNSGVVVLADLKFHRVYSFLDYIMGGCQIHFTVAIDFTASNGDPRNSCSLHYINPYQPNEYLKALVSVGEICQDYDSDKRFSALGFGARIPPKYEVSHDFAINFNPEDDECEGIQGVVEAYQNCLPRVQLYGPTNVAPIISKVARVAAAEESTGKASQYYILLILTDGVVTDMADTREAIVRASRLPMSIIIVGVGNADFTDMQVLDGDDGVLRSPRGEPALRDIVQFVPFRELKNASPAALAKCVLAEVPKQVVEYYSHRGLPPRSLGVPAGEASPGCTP
UniProt P51798: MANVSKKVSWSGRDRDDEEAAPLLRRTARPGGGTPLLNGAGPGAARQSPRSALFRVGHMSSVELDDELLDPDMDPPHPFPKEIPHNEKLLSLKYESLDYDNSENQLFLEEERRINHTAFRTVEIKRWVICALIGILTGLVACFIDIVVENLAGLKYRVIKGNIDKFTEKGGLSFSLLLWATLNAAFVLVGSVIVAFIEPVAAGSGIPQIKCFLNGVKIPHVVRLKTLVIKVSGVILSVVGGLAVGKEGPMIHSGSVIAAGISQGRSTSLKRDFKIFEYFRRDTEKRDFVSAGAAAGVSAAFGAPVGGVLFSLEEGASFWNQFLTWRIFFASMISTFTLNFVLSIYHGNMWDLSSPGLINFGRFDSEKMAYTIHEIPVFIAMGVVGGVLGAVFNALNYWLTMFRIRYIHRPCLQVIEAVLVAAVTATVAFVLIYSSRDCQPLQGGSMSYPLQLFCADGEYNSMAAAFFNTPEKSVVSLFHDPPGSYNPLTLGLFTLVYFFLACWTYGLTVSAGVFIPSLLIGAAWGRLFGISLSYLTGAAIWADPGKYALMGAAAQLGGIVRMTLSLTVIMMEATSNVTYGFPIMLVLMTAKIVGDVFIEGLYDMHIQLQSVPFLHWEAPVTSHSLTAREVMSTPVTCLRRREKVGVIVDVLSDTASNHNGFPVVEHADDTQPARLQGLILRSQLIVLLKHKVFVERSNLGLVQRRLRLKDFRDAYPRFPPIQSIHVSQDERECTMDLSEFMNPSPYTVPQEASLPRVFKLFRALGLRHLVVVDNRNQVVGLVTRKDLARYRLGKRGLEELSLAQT
UniProt Q9UNS2: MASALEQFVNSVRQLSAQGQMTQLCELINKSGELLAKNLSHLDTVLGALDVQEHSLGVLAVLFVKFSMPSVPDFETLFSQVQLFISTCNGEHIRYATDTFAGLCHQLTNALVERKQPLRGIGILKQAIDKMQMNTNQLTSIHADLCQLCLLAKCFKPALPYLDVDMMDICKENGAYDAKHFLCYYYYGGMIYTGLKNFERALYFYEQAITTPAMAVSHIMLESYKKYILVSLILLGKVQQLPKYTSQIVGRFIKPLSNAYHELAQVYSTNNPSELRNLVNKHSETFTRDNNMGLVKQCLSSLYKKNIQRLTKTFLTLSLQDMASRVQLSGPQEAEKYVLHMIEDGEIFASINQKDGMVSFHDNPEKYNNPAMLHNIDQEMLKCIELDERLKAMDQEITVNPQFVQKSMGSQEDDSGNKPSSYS
UniProt Q9Y678: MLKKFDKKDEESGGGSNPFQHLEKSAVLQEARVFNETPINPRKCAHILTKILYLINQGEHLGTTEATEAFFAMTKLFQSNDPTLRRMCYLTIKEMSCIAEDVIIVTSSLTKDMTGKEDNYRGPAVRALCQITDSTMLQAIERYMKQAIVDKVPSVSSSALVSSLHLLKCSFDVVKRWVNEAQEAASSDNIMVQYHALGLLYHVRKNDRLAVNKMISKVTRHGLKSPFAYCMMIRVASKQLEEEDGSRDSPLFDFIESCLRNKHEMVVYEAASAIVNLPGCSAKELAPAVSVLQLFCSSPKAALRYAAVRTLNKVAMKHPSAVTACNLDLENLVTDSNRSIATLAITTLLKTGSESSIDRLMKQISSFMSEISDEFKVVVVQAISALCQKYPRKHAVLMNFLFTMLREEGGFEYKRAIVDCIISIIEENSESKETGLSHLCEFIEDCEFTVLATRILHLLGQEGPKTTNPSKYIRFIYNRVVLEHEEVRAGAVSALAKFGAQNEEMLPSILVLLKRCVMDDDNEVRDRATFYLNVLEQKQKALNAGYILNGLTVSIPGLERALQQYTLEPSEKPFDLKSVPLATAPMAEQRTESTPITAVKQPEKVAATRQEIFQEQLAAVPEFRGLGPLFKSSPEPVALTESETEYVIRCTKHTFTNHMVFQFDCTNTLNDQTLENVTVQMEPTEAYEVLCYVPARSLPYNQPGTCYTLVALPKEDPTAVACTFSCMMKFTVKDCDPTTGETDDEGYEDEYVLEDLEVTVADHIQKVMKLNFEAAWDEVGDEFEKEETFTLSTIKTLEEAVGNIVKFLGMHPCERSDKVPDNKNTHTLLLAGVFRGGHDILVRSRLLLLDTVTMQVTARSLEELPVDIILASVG

[2] = compound: ClCC(=O)N[C@H]1CCCc2ccccc12; assay: as above; details: treatment time: 4 h, cell line lysate: HEK293T
Description: as §1

COTL1 C10 (UniProt Q14019)
log2 mean competition ratio ([1]; 50 µM): -0.103 | log2 mean competition ratio ([1]; 200 µM): -0.0592 | log2 mean competition ratio ([2]; 50 µM): -0.0302 | log2 mean competition ratio ([2]; 200 µM): -0.0326

COQ8A C641 (UniProt Q8NI60)
log2 mean competition ratio ([1]; 50 µM): 0.239 | log2 mean competition ratio ([1]; 200 µM): 0.185 | log2 mean competition ratio ([2]; 50 µM): 0.539 | log2 mean competition ratio ([2]; 200 µM): 0.178

CLSPN C944 (UniProt Q9HAW4)
log2 mean competition ratio ([1]; 50 µM): -0.258 | log2 mean competition ratio ([1]; 200 µM): 0.192 | log2 mean competition ratio ([2]; 50 µM): -0.285 | log2 mean competition ratio ([2]; 200 µM): 0.195

CLASP2 C198 (UniProt O75122)
log2 mean competition ratio ([1]; 50 µM): 0.244 | log2 mean competition ratio ([1]; 200 µM): 0.272 | log2 mean competition ratio ([2]; 50 µM): 0.399 | log2 mean competition ratio ([2]; 200 µM): 0.139

CMTM3 C38 (UniProt Q96MX0)
log2 mean competition ratio ([1]; 50 µM): 0.373 | log2 mean competition ratio ([1]; 200 µM): 0.149 | log2 mean competition ratio ([2]; 50 µM): -0.0159 | log2 mean competition ratio ([2]; 200 µM): 0.193

CPSF4 C55 (UniProt O95639)
log2 mean competition ratio ([1]; 50 µM): -0.0595 | log2 mean competition ratio ([1]; 200 µM): 0.253 | log2 mean competition ratio ([2]; 50 µM): -0.352 | log2 mean competition ratio ([2]; 200 µM): 0.372

CIAO1 C97 (UniProt O76071)
log2 mean competition ratio ([1]; 50 µM): -0.41 | log2 mean competition ratio ([1]; 200 µM): -0.327 | log2 mean competition ratio ([2]; 50 µM): -0.183 | log2 mean competition ratio ([2]; 200 µM): -0.435

CLUH C214
log2 mean competition ratio ([1]; 50 µM): 0.129 | log2 mean competition ratio ([1]; 200 µM): 0.351 | log2 mean competition ratio ([2]; 50 µM): -0.623 | log2 mean competition ratio ([2]; 200 µM): -0.286

CLU C313 (UniProt P10909)
log2 mean competition ratio ([1]; 50 µM): -0.333 | log2 mean competition ratio ([1]; 200 µM): 0.066 | log2 mean competition ratio ([2]; 50 µM): 0.31 | log2 mean competition ratio ([2]; 200 µM): -0.269

CHKB C17 (UniProt Q9Y259)
log2 mean competition ratio ([1]; 50 µM): -0.271 | log2 mean competition ratio ([1]; 200 µM): 0.232 | log2 mean competition ratio ([2]; 50 µM): -0.547 | log2 mean competition ratio ([2]; 200 µM): 0.248

COPG2 C723 (UniProt Q9UBF2)
log2 mean competition ratio ([1]; 50 µM): -0.574 | log2 mean competition ratio ([1]; 200 µM): -0.00198 | log2 mean competition ratio ([2]; 50 µM): -0.511 | log2 mean competition ratio ([2]; 200 µM): 0.12

CHEK2 C362 (UniProt O96017)
log2 mean competition ratio ([1]; 50 µM): -0.202 | log2 mean competition ratio ([1]; 200 µM): 0.0727 | log2 mean competition ratio ([2]; 50 µM): -0.272 | log2 mean competition ratio ([2]; 200 µM): 0.0907

CHML C320 (UniProt P26374)
log2 mean competition ratio ([1]; 50 µM): -0.109 | log2 mean competition ratio ([1]; 200 µM): 0.169 | log2 mean competition ratio ([2]; 50 µM): 0.556 | log2 mean competition ratio ([2]; 200 µM): 0.371

CORO1C C420 (UniProt Q9ULV4)
log2 mean competition ratio ([1]; 50 µM): -0.0485 | log2 mean competition ratio ([1]; 200 µM): 0.643 | log2 mean competition ratio ([2]; 50 µM): 0.25 | log2 mean competition ratio ([2]; 200 µM): 0.427

COPA C514 (UniProt P53621)
log2 mean competition ratio ([1]; 50 µM): -0.163 | log2 mean competition ratio ([1]; 200 µM): 0.0614 | log2 mean competition ratio ([2]; 50 µM): -0.245 | log2 mean competition ratio ([2]; 200 µM): -0.0654

COPS4 C255 (UniProt Q9BT78)
log2 mean competition ratio ([1]; 50 µM): 0.186 | log2 mean competition ratio ([1]; 200 µM): 0.0881 | log2 mean competition ratio ([2]; 50 µM): -0.298 | log2 mean competition ratio ([2]; 200 µM): -0.0571

CPNE7 C20 (UniProt Q9UBL6)
log2 mean competition ratio ([1]; 50 µM): 0.114 | log2 mean competition ratio ([1]; 200 µM): -0.106 | log2 mean competition ratio ([2]; 50 µM): 0.0155 | log2 mean competition ratio ([2]; 200 µM): -0.14

CNNM4 C220 (UniProt Q6P4Q7)
log2 mean competition ratio ([1]; 50 µM): 0.000495 | log2 mean competition ratio ([1]; 200 µM): 0.00299 | log2 mean competition ratio ([2]; 50 µM): -0.124 | log2 mean competition ratio ([2]; 200 µM): -0.000278

CHD6 C172 (UniProt Q8TD26)
log2 mean competition ratio ([1]; 50 µM): 0.136 | log2 mean competition ratio ([1]; 200 µM): 0.0896 | log2 mean competition ratio ([2]; 50 µM): 0.102 | log2 mean competition ratio ([2]; 200 µM): 0.186

CLCN7 C637 (UniProt P51798)
log2 mean competition ratio ([1]; 50 µM): -0.0563 | log2 mean competition ratio ([1]; 200 µM): -0.178 | log2 mean competition ratio ([2]; 50 µM): 0.487 | log2 mean competition ratio ([2]; 200 µM): 0.0852

COPS3 C25 (UniProt Q9UNS2)
log2 mean competition ratio ([1]; 50 µM): 0.243 | log2 mean competition ratio ([1]; 200 µM): 0.599 | log2 mean competition ratio ([2]; 50 µM): 0.175 | log2 mean competition ratio ([2]; 200 µM): 0.176

CKAP2 C562 (UniProt Q8WWK9)
log2 mean competition ratio ([1]; 50 µM): -0.18 | log2 mean competition ratio ([1]; 200 µM): 0.0372 | log2 mean competition ratio ([2]; 50 µM): -0.283 | log2 mean competition ratio ([2]; 200 µM): 0.0565

CHEK1 C408 (UniProt O14757)
log2 mean competition ratio ([1]; 50 µM): 0.203 | log2 mean competition ratio ([1]; 200 µM): 0.11 | log2 mean competition ratio ([2]; 50 µM): -0.49 | log2 mean competition ratio ([2]; 200 µM): -0.00629

COPG1 C129 (UniProt Q9Y678)
log2 mean competition ratio ([1]; 50 µM): 0.329 | log2 mean competition ratio ([1]; 200 µM): 0.353 | log2 mean competition ratio ([2]; 50 µM): 0.297 | log2 mean competition ratio ([2]; 200 µM): 0.244

From the supplement of paper PMC11732987, “Enantioselective OTUD7B fragment discovery through chemoproteomics screening and high-throughput optimisation” (Communications Chemistry, 2025)
